# Assay results reported in publication PMC5234120, “Age-related macular degeneration associated polymorphism rs10490924 in ARMS2 results in deficiency of a complement activator” (Journal of Neuroinflammation, 2017).
# Results are given in words; binding and its absence hold for the method and conditions named.
# Columns and labels:
# iC3b = assay: ELISA; complement proteins (each 500 ng in PBS) coated on MediSorp plates; 500 ng ARMS2 in 2% BSA, 0.05% Tween-20 in PBS, 1 h RT; ARMS2 detected with ARMS2 antiserum; both purified
# factor B = assay: as above
binder,measurement,setting,value
"recombinant ARMS2 (age-related maculopathy susceptibility 2) (natural protein, human, UniProt P0C7Q2 1-107, looked up, ARMS2, human, codon usage optimized full length cDNA; Glycosylated in P. pastoris (17 and 15 kDa bands); also called His-tagged ARMS2; rARMS2) MLRLYPGPMVTEAEGKGGPEMASLSSSVVPVSFISTLRESVLDPGVGGEGASDKQRSKLSLSHSMIPAAKIHTELCLPAFFSPAGTQRRFQQPQHHLTLSIIHTAAR",binding,iC3b,no binding (tested: 500 ng ARMS2)
same,binding,factor B,no binding (tested: 500 ng ARMS2)
